Source: patent publication US20090215717A1, “Sulfated oligosaccharides” (Ivax Drug Research Institute Ltd., priority 2004, published 2009)
Where a name gives a salt, the structure may show the parent alone. At least one compound was matched to its structure with a doubt left.

Amino acid sequences for entries named in this document (tags omitted).
UniProt P29994, whole entry: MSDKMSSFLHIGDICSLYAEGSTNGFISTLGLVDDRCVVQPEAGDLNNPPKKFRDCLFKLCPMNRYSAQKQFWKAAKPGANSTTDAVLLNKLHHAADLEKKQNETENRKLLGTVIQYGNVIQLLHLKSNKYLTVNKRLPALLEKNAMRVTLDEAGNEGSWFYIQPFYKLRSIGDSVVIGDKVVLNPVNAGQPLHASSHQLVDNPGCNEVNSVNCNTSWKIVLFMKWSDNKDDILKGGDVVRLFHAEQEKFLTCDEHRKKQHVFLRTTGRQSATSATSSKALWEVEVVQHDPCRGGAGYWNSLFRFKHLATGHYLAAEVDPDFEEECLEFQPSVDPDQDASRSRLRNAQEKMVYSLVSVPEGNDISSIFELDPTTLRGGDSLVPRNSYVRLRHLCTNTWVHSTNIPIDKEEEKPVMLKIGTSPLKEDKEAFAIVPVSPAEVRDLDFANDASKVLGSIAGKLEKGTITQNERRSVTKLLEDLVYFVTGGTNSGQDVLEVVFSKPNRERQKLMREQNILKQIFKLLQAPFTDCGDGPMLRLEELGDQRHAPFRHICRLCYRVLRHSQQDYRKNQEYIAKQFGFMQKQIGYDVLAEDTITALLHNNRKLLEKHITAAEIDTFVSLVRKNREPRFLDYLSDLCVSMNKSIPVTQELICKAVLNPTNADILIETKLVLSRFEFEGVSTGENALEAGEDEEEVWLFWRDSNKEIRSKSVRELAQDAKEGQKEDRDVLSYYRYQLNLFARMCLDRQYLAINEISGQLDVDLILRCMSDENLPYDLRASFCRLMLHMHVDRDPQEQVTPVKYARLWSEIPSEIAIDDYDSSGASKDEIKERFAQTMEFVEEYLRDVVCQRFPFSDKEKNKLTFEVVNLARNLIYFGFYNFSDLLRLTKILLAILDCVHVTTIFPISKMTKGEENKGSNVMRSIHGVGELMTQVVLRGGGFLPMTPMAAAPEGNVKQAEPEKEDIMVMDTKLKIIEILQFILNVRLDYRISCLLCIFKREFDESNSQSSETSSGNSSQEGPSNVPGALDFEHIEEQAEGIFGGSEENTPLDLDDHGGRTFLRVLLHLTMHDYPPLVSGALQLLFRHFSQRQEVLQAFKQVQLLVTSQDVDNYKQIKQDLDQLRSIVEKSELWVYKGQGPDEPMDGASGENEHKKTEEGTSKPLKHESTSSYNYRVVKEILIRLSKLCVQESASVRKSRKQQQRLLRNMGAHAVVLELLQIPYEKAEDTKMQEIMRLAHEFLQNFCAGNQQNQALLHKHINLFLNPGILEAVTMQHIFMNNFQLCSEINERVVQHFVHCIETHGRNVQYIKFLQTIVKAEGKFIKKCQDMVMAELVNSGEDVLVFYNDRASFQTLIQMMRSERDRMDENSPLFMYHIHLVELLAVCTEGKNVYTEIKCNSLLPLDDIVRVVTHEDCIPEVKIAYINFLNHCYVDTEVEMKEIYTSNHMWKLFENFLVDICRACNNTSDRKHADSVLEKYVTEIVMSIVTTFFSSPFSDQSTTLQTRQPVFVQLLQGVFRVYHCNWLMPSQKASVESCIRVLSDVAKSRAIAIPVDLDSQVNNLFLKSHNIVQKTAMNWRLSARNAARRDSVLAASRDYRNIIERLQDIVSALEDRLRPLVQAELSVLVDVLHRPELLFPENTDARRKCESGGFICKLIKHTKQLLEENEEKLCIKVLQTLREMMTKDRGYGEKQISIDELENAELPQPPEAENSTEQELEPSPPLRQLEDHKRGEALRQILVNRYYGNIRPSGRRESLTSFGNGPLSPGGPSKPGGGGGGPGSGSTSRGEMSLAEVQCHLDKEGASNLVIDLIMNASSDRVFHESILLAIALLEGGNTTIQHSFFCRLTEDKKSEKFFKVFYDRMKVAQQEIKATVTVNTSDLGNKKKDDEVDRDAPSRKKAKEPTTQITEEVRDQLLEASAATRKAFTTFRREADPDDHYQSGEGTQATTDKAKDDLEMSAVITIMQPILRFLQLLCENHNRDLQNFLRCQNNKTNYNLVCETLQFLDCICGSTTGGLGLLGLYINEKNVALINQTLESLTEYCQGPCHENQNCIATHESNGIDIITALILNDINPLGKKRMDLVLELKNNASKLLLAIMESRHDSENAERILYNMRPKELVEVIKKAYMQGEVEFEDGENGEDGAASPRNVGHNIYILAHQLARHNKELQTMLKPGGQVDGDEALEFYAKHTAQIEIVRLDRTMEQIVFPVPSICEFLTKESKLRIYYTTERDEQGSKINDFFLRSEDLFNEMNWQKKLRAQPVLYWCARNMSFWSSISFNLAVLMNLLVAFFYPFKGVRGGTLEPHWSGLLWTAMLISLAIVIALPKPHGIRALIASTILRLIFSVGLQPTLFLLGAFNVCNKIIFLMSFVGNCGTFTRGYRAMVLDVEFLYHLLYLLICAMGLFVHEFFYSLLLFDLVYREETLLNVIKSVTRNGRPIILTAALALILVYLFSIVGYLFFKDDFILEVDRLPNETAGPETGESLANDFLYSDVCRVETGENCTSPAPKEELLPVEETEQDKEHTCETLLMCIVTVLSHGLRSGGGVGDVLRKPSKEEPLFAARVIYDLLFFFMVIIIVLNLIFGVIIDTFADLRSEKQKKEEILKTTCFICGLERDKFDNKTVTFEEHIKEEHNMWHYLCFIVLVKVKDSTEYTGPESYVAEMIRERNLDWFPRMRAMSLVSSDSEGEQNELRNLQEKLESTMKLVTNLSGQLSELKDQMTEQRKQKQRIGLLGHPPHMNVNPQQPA

Molecular target: T1, IP-3 receptor (Rattus norvegicus, UniProt P29994)
T1 construct: rat cerebellum membrane preparations; from tissue; host or cells: rat cerebellum (microsomal membrane preparation)
Assay: IP-3 receptor antagonistic effect, rat cerebellum membrane preparations (Model 5)
Assay type: binding
Description: The sulfated oligosaccharides of the present invention, depending on their chemical structure, inhibit the binding of inositol-1,4,5-trisphophate […] to its receptor in microsomal membrane preparations. As IP-3 is a messenger molecule playing distinguished role in the activation of different cells, interfering with this function can explain the anti-asthmatic effect of these sulfated oligosaccharides.
The IP-3 antagonist effect of the sulfated oligosaccharides was determined using rat cerebellum membrane preparations according to Worley et al. (JBC 262, 12132, 1987).

SMILES: O=S(=O)(O)OC[C@H]1O[C@H](O[C@H]2O[C@H](COS(=O)(=O)O)[C@@H](OS(=O)(=O)O)[C@H](OS(=O)(=O)O)[C@H]2OS(=O)(=O)O)[C@H](OS(=O)(=O)O)[C@@H](OS(=O)(=O)O)[C@@H]1OS(=O)(=O)O [IIB, trehalose octasulfate octa potassium salt]
- IP-3 antagonist activity (in words): significant IP-3 antagonist activity
